{"source": "patent US11555052B2", "about": "“Methods for preventing disulfide bond reduction in cell culture harvest with selenite” (BAYER HEALTHCARE LLC, priority 2017, dated 2023)", "key": {"[1]": {"tested_on": "TFPI cell culture harvest (antibody disulfide reduction)", "assay": "Experiment 1: TFPI harvest clarified using depth filters (minimal cell lysis), nitrogen hold, capillary electrophoresis", "format": "biochemical", "settings": "cell free clarified harvest held under nitrogen for 24 hours"}, "[2]": {"tested_on": "TFPI cell culture harvest (antibody disulfide reduction)", "assay": "Experiment 2: TFPI harvest with fully lysed cells, stored under nitrogen, capillary electrophoresis", "format": "biochemical", "settings": "fully lysed harvest stored under nitrogen for 48 hours"}}, "note": "For at least one compound, name, drawing or mass did not settle the structure."}
{"smiles": "O=[Se](O)O", "note": "[sodium selenite]", "values": [{"measurement": "disulfide reduction of antibody", "setting": "[1]; 150 uM selenite", "result": "not"}, {"measurement": "disulfide reduction of antibody", "setting": "[1]; 500 uM selenite", "result": "prevented"}, {"measurement": "disulfide reduction of antibody", "setting": "[2]; 200 uM selenite", "result": "not"}, {"measurement": "disulfide reduction of antibody", "setting": "[2]; 300 uM selenite", "result": "completely prevented"}]}
